Laboratory results: PubChem BioAssay AID248 (DTP/NCI, 2004)
The list is a part of this screen's results and no random one: it is rich in T/C values a quarter to a half above the control, in often repeated tests (any T/C) and in doses without a T/C. Further doses and runs are listed elsewhere. T/C gives the treated animals as a percentage of the vehicle group. Some entries give survivors of the animals treated and no T/C: the source files T/C as zero there, which appears to mark a toxic dose or a test without result, not a measured value. Some doses without a T/C left all or most animals alive at the check, yet need not have been tolerated: the source hardly ever lists a survival T/C far under the control, and the zero likely stands for such cases as well. Counts of survivors are from the toxicity check (mostly the fifth day) where no day follows; animals may have died later. Schedules are NCI's codes, read here as Q, the interval in days (D) or hours (H), X, the number of doses. Some entries were tested several times; the values are given in rising order. Some schedules carry Z or #; the key to these is not given. For survival time, this PubChem deposit counts one and a half times the control or more as active, and values a quarter to a half above the control carry no call in these data; other NCI protocols may use other cut-offs. Some T/C values are followed by the survivors on the day toxicity was checked, most often the fifth; without a count, all were alive then.

Test system: L1210 leukemia ip in BDF1 mice, survival T/C
Assay: NCI In Vivo Anticancer Drug Screen. Data for tumor model L1210 Leukemia (intraperitoneal) in B6D2F1 (BDF1) mice
Conditions: T/C endpoint: mean survival time, higher T/C = longer survival
[1] = dose: 200.0 mg/kg/injection, schedule: Q04DX002 (ip), vehicle: saline
[2] = dose: 400.0 mg/kg/injection, schedule: Q04DX002 (ip), vehicle: saline
[3] = dose: 200.0 mg/kg/injection, schedule: Q04DX003 (ip), vehicle: saline with Tween-80
[4] = dose: 400.0 mg/kg/injection, schedule: Q04DX003 (ip), vehicle: saline with Tween-80
[5] = dose: 50.0 mg/kg/injection, schedule: Q01DX009 (ip), vehicle: saline with Tween-80
[6] = dose: 100.0 mg/kg/injection, schedule: Q01DX009 (ip), vehicle: saline with Tween-80
[7] = dose: 200.0 mg/kg/injection, schedule: Q01DX009 (ip), vehicle: saline with Tween-80
[8] = dose: 400.0 mg/kg/injection, schedule: Q01DX009 (ip), vehicle: saline with Tween-80
[9] = dose: 200.0 mg/kg/injection, schedule: Q01DX009 (ip), vehicle: saline
[10] = dose: 400.0 mg/kg/injection, schedule: Q04DX003 (ip), vehicle: saline
[11] = dose: 200.0 mg/kg/injection, schedule: Q04DX003 (ip), vehicle: saline
[12] = dose: 100.0 mg/kg/injection, schedule: Q01DX001 (ip), vehicle: saline
[13] = dose: 400.0 mg/kg/injection, schedule: Q04DX002 (ip), vehicle: Klucel (hydroxypropylcellulose) (HPC)
[14] = dose: 400.0 mg/kg/injection, schedule: Q01DX009 (ip), vehicle: saline
[15] = dose: 200.0 mg/kg/injection, schedule: Q01DX001 (ip), vehicle: saline
[16] = dose: 400.0 mg/kg/injection, schedule: Q01DX001 (ip), vehicle: saline

NC(CCl)=NC1CCCC1
survivor count (dose: 100.0 mg/kg/injection, schedule: Q04DX002 (ip), vehicle: saline): 0 of 3 | survivor count [1]: 0 of 3 | survivor count [2]: 0 of 3

C=CCOc1ccncc1
survivor count (dose: 100.0 mg/kg/injection, schedule: Q04DX003 (ip), vehicle: saline with Tween-80): 5 of 6 | survivor count [3]: 1 of 6 | survivor count [4]: 0 of 6

CCN(CC)CCCNC1=C(Cl)C(=O)c2ccccc2C1=O
survivor count [5]: 4 of 6 | survivor count [6]: 0 of 6 | survivor count [7]: 0 of 6 | survivor count [8]: 0 of 6

O=C1CSC(=S)N1/N=C/c1c[nH]c2ccc(Br)cc12
survivor count (dose: 300.0 mg/kg/injection, schedule: Q01DX001 (ip), vehicle: carboxymethylcellulose (CMC)): 2 of 6

CN(C)CCSC(=O)N1c2ccccc2C(C)(C)c2ccccc21
survivor count (dose: 100.0 mg/kg/injection, schedule: Q01DX009 (ip), vehicle: saline): 6 of 6 | survivor count [9]: 4 of 6 | survivor count [10]: 0 of 4

COc1cc2ccc(CCNCc3ccccc3)cc2cc1OC
survivor count [11]: 1 of 6 | survivor count [10]: 0 of 6

CCN(C(=O)NC(C)(C)C)c1cccc(C)c1
T/C [5]: 94, 97, 98, 106 % of control | T/C [6]: 101 and 108 % of control | survivor count [6]: 1 of 3 and 2 of 6 | survivor count (dose: 200.0 mg/kg/injection, schedule: Q01DX001 (ip), vehicle: saline with Tween-80): 0 of 3 | survivor count [7]: 0 of 3 and 0 of 6 | survivor count (dose: 400.0 mg/kg/injection, schedule: Q04DX002 (ip), vehicle: saline with Tween-80): 3 of 6 | survivor count [4]: 5 of 6

CSc1nc(Cl)c(Cl)c(SC)n1 (tested in a mixture with another compound)
survivor count (dose: 200.0 mg/kg/injection, schedule: Q01DX009 (ip), vehicle: Klucel (hydroxypropylcellulose) (HPC)): 1 of 3

CC(=O)[C@]1(O)Cc2c(O)c3c(c(O)c2[C@@H](OC2CC(N)C(O)C(C)O2)C1)C(=O)c1c(O)cccc1C3=O (some centres not stated)
T/C (dose: 0.05 mg/kg/injection, schedule: Q01DX009 (ip), vehicle: saline): 133 % of control | T/C (dose: 0.1 mg/kg/injection, schedule: Q01DX001 (ip), vehicle: saline): 129 % of control | T/C (dose: 0.1 mg/kg/injection, schedule: Q01DX009 (ip), vehicle: saline): 126 % of control | T/C (dose: 0.2 mg/kg/injection, schedule: Q01DX009 (ip), vehicle: saline): 138 % of control | T/C (dose: 0.2 mg/kg/injection, schedule: Q03DX003 (ip), vehicle: saline): 140 % of control | T/C (dose: 0.4 mg/kg/injection, schedule: Q01DX001 (ip), vehicle: saline): 143 % of control

CC(=O)Nc1cc(C)cc(C)n1
survivor count (dose: 350.0 mg/kg/injection, schedule: Q01DX009 (ip), vehicle: saline with Tween-80): 0 of 6

Cc1cccc(N(CCOC(=O)Nc2cccc(Cl)c2)CCOC(=O)Nc2cccc(Cl)c2)c1
survivor count [12]: 4 of 4

O=C(Nc1ccc(Cl)c(C(F)(F)F)c1)Oc1ccccn1
survivor count [7]: 0 of 6 | survivor count [8]: 0 of 6

NC(=O)c1ccc[n+](CC(=O)NCc2ccccc2)c1
survivor count [10]: 1 of 6

CCCCCCCCCCc1cc2c([nH]1)C(=O)c1ccccc1C2=O
survivor count (dose: 150.0 mg/kg/injection, schedule: Q01DX001 (ip), vehicle: Klucel (hydroxypropylcellulose) (HPC)): 6 of 6

CCC[CH2][Sn]1([CH2]CCC)[O]OC2([O]1)C1CC3CC(C1)CC2C3 (configuration not stated)
survivor count (dose: 25.0 mg/kg/injection, schedule: Q04DX002 (ip), vehicle: Klucel (hydroxypropylcellulose) (HPC)): 3 of 3 | survivor count (dose: 50.0 mg/kg/injection, schedule: Q04DX002 (ip), vehicle: Klucel (hydroxypropylcellulose) (HPC)): 3 of 3 | survivor count (dose: 100.0 mg/kg/injection, schedule: Q04DX002 (ip), vehicle: Klucel (hydroxypropylcellulose) (HPC)): 0 of 3 | survivor count (dose: 200.0 mg/kg/injection, schedule: Q04DX002 (ip), vehicle: Klucel (hydroxypropylcellulose) (HPC)): 0 of 3 | survivor count [13]: 0 of 3

CC(=O)Nc1cccc2cccnc12
survivor count (dose: 150.0 mg/kg/injection, schedule: Q01DX009 (ip), vehicle: other): 0 of 6 | survivor count [3]: 3 of 6 | survivor count (dose: 300.0 mg/kg/injection, schedule: Q01DX009 (ip), vehicle: other): 6 of 6 | survivor count (dose: 400.0 mg/kg/injection, schedule: Q01DX009 (ip), vehicle: Klucel (hydroxypropylcellulose) (HPC)): 0 of 6 | survivor count [14]: 0 of 6 | survivor count [4]: 1 of 6

CN1CN(c2ccccc2)C2(CCN(CCCC3Cc4ccccc4O3)CC2)C1=O (configuration not stated)
survivor count (dose: 100.0 mg/kg/injection, schedule: Q01DX001 (ip), vehicle: Klucel (hydroxypropylcellulose) (HPC)): 2 of 6 | survivor count (dose: 200.0 mg/kg/injection, schedule: Q01DX001 (ip), vehicle: Klucel (hydroxypropylcellulose) (HPC)): 2 of 6 | survivor count (dose: 400.0 mg/kg/injection, schedule: Q01DX001 (ip), vehicle: Klucel (hydroxypropylcellulose) (HPC)): 1 of 6

Oc1ccc([S+](c2ccc(O)cc2)c2ccc(O)cc2)cc1
survivor count (dose: 80.0 mg/kg/injection, schedule: Q01DX001 (ip), vehicle: saline): 2 of 4 | survivor count [12]: 0 of 4 | survivor count [15]: 0 of 4 | survivor count [16]: 0 of 4

Cc1cccc(SC(=O)SC(C)CN)c1 (configuration not stated)
survivor count [1]: 0 of 3 | survivor count [2]: 0 of 3

CCCCOC(=N)N(CCCC)CC(C)(C)[N+](=O)[O-]
survivor count (dose: 66.0 mg/kg/injection, schedule: Q01DX Z (ip), vehicle: methylcellulose (MC)): 2 of 6

Cc1cc2c(cc1C)NC(C)CC(=O)N2 (configuration not stated)
survivor count [9]: 6 of 6 | survivor count (dose: 300.0 mg/kg/injection, schedule: Q01DX009 (ip), vehicle: Klucel (hydroxypropylcellulose) (HPC)): 3 of 6 | survivor count [14]: 0 of 6

NC(N)=N/N=C/c1c(O)ccc2ccccc12
T/C (dose: 62.5 mg/kg/injection, schedule: Q01DX010 (oral), vehicle: saline): 135 % of control [5 of 6 alive] | survivor count (dose: 125.0 mg/kg/injection, schedule: Q01DX010 (oral), vehicle: saline): 1 of 6 | survivor count (dose: 125.0 mg/kg/injection, schedule: Q01DX Z (oral), vehicle: saline): 1 of 6 | survivor count (dose: 250.0 mg/kg/injection, schedule: Q01DX Z (oral), vehicle: saline): 0 of 6 | survivor count (dose: 500.0 mg/kg/injection, schedule: Q01DX Z (oral), vehicle: saline): 0 of 6 | survivor count (dose: 1000.0 mg/kg/injection, schedule: Q01DX Z (oral), vehicle: saline): 0 of 6

NNc1nc2ccccc2o1
survivor count (dose: 75.0 mg/kg/injection, schedule: Q01DX009 (ip), vehicle: saline with Tween-80): 0 of 6 | survivor count (dose: 150.0 mg/kg/injection, schedule: Q01DX009 (ip), vehicle: saline with Tween-80): 0 of 6 | survivor count (dose: 300.0 mg/kg/injection, schedule: Q01DX009 (ip), vehicle: saline with Tween-80): 0 of 6

O=C(O)COc1ccc(Cl)cc1I
survivor count [13]: 3 of 3

CCOC(C)=N
survivor count (dose: 400.0 mg/kg/injection, schedule: Q01DX008 (ip), vehicle: saline): 2 of 6

CCCCCCC(C)S(=O)(=O)c1ccc(C)cc1 (configuration not stated)
survivor count [16]: 4 of 4

NC(N)=NC1CCCC1
survivor count [11]: 0 of 6 | survivor count [10]: 0 of 6

CCN(CC)CCOc1ccc(C)cc1
survivor count [9]: 0 of 6

CCCCN=C(N)N=C(N)N
survivor count [15]: 0 of 6 | survivor count [16]: 0 of 6
